The values that follow come from the supplement of paper PMC10338343.

± gives the standard deviation. The list shows a part of the results, in another mix than the full data. Many of these values have a large error.

This test has as its system MIWI (PIWIL1) piRISC loaded with piRNA #2 (30 nt). In words: pre-steady-state target cleavage rate (min^-1); MIWI and MILI are mouse PIWI proteins and EfPiwi is from a freshwater sponge; tags in brackets are library labels; higher = faster piRNA-guided slicing of the target. The note with it: guide: piRNA #2 5'p-UUAGGUAACCCAGUAGAUCCAGAGGAAUUC; auxiliary factor: 500 nM mouse GTSF1. In outline: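 In Cleave-'n-Seq, a transcribed, DNA-blocked target RNA library (0.1 nM) was combined with 1 nM active affinity-purified piRISC bearing one synthetic guide, with or without 500 nM GTSF1 partner protein. Reactions ran in HEPES–potassium acetate buffer at 33 °C for 0–8 or 0–960 min. Uncleaved targets were sequenced and normalised to depth and to weakly complementary targets, three trials were pooled, and k3 was capped at 0.0001 min^-1. The pre-steady-state cleavage rate was obtained by fitting a burst-and-steady-state model.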
In the case of CAAUUCCUCUGGAACUACUCGGUUACCUAA, the “pre-steady-state target cleavage rate” value was 0.157 ± 0.022. Under CUUAAGGAGACCUUCUCUGGGUUACCUAA stands 0.00177 ± 0.0076; under CUUAAGGAGAGCAUCUACUGGGUUACCUUA, 0.0033 ± 0.0034. For CUUAAGGAGUGGAUCAUACUGGGUUACCUAA the value was 0.00035 ± 0.02; for CUUAAGGAGACCAUGAUCUGGGUUACCUAA, 0.000822 ± 0.0068; for CUUAAGGAGACGAUCUACUGGGUUCACCUAA, 0.00176 ± 0.0063. CUUAAGGUCUGGAUCUACUGGCAAACCUAA: the “pre-steady-state target cleavage rate” value was 0.00133 ± 0.011. Under CUUAAGGAGACGAUCUACAGGCUUACCUAA stands 0.000901 ± 0.0083; under CUUAAGGUCUGCAUCUAGUGGGUUACCUAA, 0.0327 ± 0.0059; under GAAUUCCUCUGCUUCUACUGGGUUACCUAA, 0.48 ± 0.04. For CUUAAGGAGACCAUCUACUGCGUUAGCUAA the value was 0.000751 ± 0.015; for CUUAAGGAGACCUAGAUCUGGGUUGACCUAA, 0.000547 ± 0.011.

On to CUUAAGGAGACCUUCUACUGGUUACCUAA, for which the “pre-steady-state target cleavage rate” value was found to be 0.0018 ± 0.0058. As to CUUAAGGAGACCUAGAUGGGGGUUACCUAA, the “pre-steady-state target cleavage rate” value is 0.0013 ± 0.012. For CUUAAGGAGACCAUCUACUGGGCUUACCUAA the value was 0.000762 ± 0.0092. For CUUAAGGAGUGGAUCUACAGGGUAACCUAA the value was 0.00234 ± 0.005; for CUUAACCUCUGGAUCUAGACGGUUACCUAA, 0.000904 ± 0.0083; for CUUAAGGAGACCUUCUACAGGGUUACGUAA, 0.00202 ± 0.0063. As for CUUAAGGAGACGAUCUACUGGUGUUACCUAA, the “pre-steady-state target cleavage rate” value is 0.000309 ± 0.024. Under CUAUUCCUCCGGAUCUACUGGGUUACCUAA stands 0.697 ± 0.12; under “CUUAAGGAGACCUAGAUGUGGGUUACCUAC [g2:g12:cont:t1C]”, 0.000747 ± 0.01. Under CUUAAGGAGAGGUUCUACUGGCUUACCUAA stands 0.00217 ± 0.0052; under CUUAAGGAGAGGAUCUAGUGGGUUACCUAA, 0.000885 ± 0.011. For CUUAAGCUCUGGAUCUUGUGGGUUACCUAA the value was 0.00325 ± 0.0043; for CUAUUCCUCUGGAUCUACUGGUGUUACCUAA, 0.00505 ± 0.0032. For CUUAAGGAGACCUAGAUCAGGGUAACCUAA, the “pre-steady-state target cleavage rate” value was 0.000198 ± 0.021.

On to CUUAAGGAGACCAUAUACUGGGUUACCUAA, for which the “pre-steady-state target cleavage rate” value was found to be 0.00152 ± 0.0057.

For CUUAAGGAGACGAUGAUCUGGGUUACCUAA, the “pre-steady-state target cleavage rate” value was found to be 0.000165 ± 0.04.

Regarding CUUAAGCUCUGGAUCUACUGGGUUACCCAA, the “pre-steady-state target cleavage rate” value is 0.00358 ± 0.005. Under CUUAAGGAGAGGAUCUACUCGGUUACCUAA stands 0.00249 ± 0.0065. For CUUAAGGAGUGGAUCUACUGGCUUUCCUAA the value was 0.000262 ± 0.021. For CUUAACCACUGGAUCUACUGGGUUACGUAA the value was 0.402 ± 0.031.

For CUUAAGGAGACGAUCUACUGGGGUACCUAA, the “pre-steady-state target cleavage rate” value is 0.0004 ± 0.018. Under CUUAAGGAGAGCAUCUACUGGGAUACCUAA stands 0.000651 ± 0.0089. Take CUUAAGGAGAGGAUCUACUGGGUUUCCUUA: the “pre-steady-state target cleavage rate” value worked out at 0.00157 ± 0.006. Under CUUAAGGAGACCAUCUACUGGGUUACUUAA stands 0.00134 ± 0.004; under CUUAAGGAGACCAUCUACUGGGUUACCCAA, 0.00145 ± 0.0065; under CUUAAGGAGACCUGCUACUGGGUUACCUAA, 0.00305 ± 0.004. Under CUUAAGGAGACCUACUACUGGGUUACCUA stands 0.00141 ± 0.0042; under CUUAAGGAGACCUACCACUGGGUUACCUAA, 0.000878 ± 0.0081. Under CUUAAGGAGACCUAGUACUGGUGUUACCUAA stands 0.000372 ± 0.018. As to CUUAAGGAGUGGAUCUACUGCGGUUACCUAA, the “pre-steady-state target cleavage rate” value is 0.000359 ± 0.012. In the case of CUUAAGCUCUGCAUCUACUGGGUUAGCUAA, the “pre-steady-state target cleavage rate” value came out at 0.182 ± 0.027.

For “CUUUUCCUCUGGAUCUACUGGGUUAGGAUA [g6:g27:cont:t1A]”, the “pre-steady-state target cleavage rate” value amounted to 0.00298 ± 0.0048. For CUUAAGGUCUGGAUCUACCUGGGUUACCUAA the value was 0.000628 ± 0.011; for CUUAAGGAGACCUAGUACUGCGUUACCUAA, 0.0013 ± 0.0071. Under CUUAAGGAGUCGAUCUACUGGGUUACGUAA stands 0.00611 ± 0.0073. For CAAUUCCUCUGGAUCCUACUGGGUUACCUAA the value was 0.29 ± 0.055; for CUUAAGGAGACCUACUACUGGGGUUACCUAA, 0.000805 ± 0.0098. Consider CUUAAGGAGACCUACUACUGGGUUCCUAA, for which the “pre-steady-state target cleavage rate” value was found to be 0.00023 ± 0.017. Under CUUAAGGAGACGAUCUACUGGGUCUACCUAA stands 0.00139 ± 0.0066. Under CUUAAGGAGACGAUCUACUGGGUUACCUA stands 0.00209 ± 0.0031; under CUUAAGGAGAGAAUCUACUGGGUUACCUAA, 0.00332 ± 0.0043. Under CUUAAGGAGACGAUCUACUGGGUUACCGUAA stands 0.00254 ± 0.004; under “CUUUUCCUCUGGAUCUACACCCAAUGGAUA [g13:g27:cont:t1A]”, 0.000383 ± 0.014. Consider CUUAAGGAGUGGAUCUACUGGCUUACGUAA, for which the “pre-steady-state target cleavage rate” value turned out to be 0.00371 ± 0.011. Under CUUAAGGAGACCAACUACUGGGUUAGCUAA stands 0.00124 ± 0.0084; under CAAUUCCUCUGGAUCUACUGCGGUUACCUAA, 0.00358 ± 0.0036; under CUUAAGGAGUGCAUCUACUGCGUUACCUAA, 0.00153 ± 0.0085.

Take CUUAAGGACAGCAUCUACUGGGUUACCUAA: the “pre-steady-state target cleavage rate” value was 0.00648 ± 0.0035. Under CUUAAGGAGACCUACUACUGGGUUCACCUAA stands 0.00119 ± 0.008; under CAAUUCCUCUCGUUCUACUGGGUUACCUAA, 0.82 ± 0.071. Under CUUAAGGAGACCUAGAUCAGGGUUACGUAA stands 0.000668 ± 0.01; under CUUAAGGAGACGAUCUACUGGGUAACCUAA, 0.000263 ± 0.029; under CUUUUCCUCUGGAUCUACUGGUUACCUAA, 0.0817 ± 0.016. Regarding CUUAAGGAGACCAUCUACUGGGUUAUCUAA, the “pre-steady-state target cleavage rate” value came to 0.00136 ± 0.0059.

In the case of CUUAAGGAGACCUAGAUCUGGGUUACCUA, the “pre-steady-state target cleavage rate” value was 0.000601 ± 0.0065. For CUUAAGGAGACGAUCUUCUCGGUUACCUAA the value was 0.000872 ± 0.011; for CUAUUCCUCUGGAUCUACUGAGUUACCUAA, 0.823 ± 0.06. For CUUAAGGAGACCAUCUACUCGGUUACCUAA the value was 0.00138 ± 0.0047.

In the case of CUUAUCCUCUGGAUCUUCUGGGAUACCUAA, the “pre-steady-state target cleavage rate” value was found to be 0.144 ± 0.025.
